Test results published in article PMC7012618.
These are yes or no findings as the source states them, for the method shown. In cells and extracts the contact can be indirect. Some results given as binding are weak or reduced against the parent protein; the word gives no strength. Where a sequence is shown, tags or fusion partners need not be part of it.

By UniProt entry, the sequences of proteins in these tests, tags left out.
UniProt P09874: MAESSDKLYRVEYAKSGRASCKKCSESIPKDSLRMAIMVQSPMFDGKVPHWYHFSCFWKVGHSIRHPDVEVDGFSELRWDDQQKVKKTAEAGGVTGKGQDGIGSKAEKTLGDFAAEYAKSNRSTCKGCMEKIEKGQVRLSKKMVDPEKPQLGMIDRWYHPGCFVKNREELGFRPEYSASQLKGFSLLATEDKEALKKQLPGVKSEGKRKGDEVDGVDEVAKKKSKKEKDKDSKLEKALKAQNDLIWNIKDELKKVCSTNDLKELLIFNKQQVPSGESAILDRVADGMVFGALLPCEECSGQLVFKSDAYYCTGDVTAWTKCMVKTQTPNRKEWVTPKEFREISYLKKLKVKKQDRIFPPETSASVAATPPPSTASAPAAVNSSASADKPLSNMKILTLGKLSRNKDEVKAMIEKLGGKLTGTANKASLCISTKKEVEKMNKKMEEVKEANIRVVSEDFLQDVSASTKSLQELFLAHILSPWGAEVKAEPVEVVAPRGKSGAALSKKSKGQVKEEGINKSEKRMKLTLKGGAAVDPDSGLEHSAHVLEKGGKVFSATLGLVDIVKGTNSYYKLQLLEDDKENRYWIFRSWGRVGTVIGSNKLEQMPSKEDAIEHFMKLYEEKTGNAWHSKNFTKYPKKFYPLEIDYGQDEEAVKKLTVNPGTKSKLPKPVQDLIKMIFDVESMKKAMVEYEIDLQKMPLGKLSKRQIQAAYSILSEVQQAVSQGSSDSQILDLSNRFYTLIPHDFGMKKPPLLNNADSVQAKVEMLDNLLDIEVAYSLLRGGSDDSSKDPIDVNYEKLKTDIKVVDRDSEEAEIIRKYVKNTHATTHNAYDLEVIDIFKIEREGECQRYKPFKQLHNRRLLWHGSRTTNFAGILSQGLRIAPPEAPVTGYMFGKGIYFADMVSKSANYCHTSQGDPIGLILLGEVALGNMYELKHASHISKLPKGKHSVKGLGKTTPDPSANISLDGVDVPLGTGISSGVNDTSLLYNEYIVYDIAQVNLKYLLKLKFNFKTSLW

How the values were obtained:
[1] = target: GFP-Kif2C (human, WT) (human) (UniProt Q99661); experiment: co-IP; GFP-Kif2C (WT or deletion mutants) expressed in HeLa cells with doxorubicin treatment; IP with anti-GFP or control (blank) beads; immunoblotting
[2] = target: MBP-Kif2C (human Kif2C expressed with MBP-tag) (human) (UniProt Q99661); experiment: pull-down; MBP Kif2C (WT or segments) on amylose beads incubated in HeLa cell lysates for 1 hr at room temperature, washed five times, immunoblotted; cells with or without doxorubicin (2 μg/mL); lysates with or without DNase I (100 units/mL); control with blank beads; only the target purified

binding [1] | binding [2] | Substance
binds | binds | Ku70/Ku80 (from UniProt P12956 1-609; P13010 1-732) (complex)
binds | binds | PARP1 (from UniProt P09874 1-1014)
